Experiment [1] addresses T1, GEF-H1 double-mutant S324A/S886A (human) (UniProt Q92974).
T1 sequence: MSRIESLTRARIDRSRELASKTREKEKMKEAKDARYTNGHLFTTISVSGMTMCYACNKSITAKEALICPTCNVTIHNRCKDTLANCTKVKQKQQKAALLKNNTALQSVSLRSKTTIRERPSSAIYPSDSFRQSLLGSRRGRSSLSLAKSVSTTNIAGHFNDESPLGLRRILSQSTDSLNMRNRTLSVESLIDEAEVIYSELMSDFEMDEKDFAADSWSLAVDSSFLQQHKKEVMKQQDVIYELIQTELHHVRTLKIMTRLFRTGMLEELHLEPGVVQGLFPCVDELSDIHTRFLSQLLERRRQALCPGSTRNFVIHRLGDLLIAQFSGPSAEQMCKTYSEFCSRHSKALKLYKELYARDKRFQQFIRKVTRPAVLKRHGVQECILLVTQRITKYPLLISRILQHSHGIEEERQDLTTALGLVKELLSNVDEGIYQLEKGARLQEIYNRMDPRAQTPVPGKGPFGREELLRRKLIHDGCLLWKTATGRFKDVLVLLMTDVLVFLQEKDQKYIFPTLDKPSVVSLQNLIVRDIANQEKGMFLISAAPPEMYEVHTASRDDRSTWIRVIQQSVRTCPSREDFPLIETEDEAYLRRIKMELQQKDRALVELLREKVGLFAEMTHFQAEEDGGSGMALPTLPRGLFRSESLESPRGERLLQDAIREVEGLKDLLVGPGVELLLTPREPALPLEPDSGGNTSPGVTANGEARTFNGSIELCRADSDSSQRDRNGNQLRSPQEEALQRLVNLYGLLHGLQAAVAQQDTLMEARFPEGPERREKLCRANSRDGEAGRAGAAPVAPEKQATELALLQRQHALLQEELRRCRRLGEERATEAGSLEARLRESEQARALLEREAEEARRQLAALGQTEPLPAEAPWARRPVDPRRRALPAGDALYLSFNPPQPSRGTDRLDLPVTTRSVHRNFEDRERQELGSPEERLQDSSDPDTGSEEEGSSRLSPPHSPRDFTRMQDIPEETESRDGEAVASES
The experiment is described as follows: co-IP; HEK293T cells transfected with the indicated plasmids (GEF-H1 WT or variants with IRF5, IKKε, IKKβ; with or without RIPK2 or NOD2); precipitated with anti-GEF-H1, protein G agarose; lysis buffer 1% NP-40, 20 mM Tris-HCl pH 7.4, 150 mM NaCl; partners detected by western blot.

Experiment [2] has as its target T2, GEF-H1 (S886A) variant (human) (UniProt Q92974).
T2 sequence: T1 sequence with A324S
The experiment is described as above.

Numbering of substitutions follows the chain as printed. No constants are given. Whether binding was seen depends on the method and setting. Binding seen in cells or lysates may run through a third protein. Some results given as binding are weak or reduced against the parent protein; the word gives no strength. Sequences can lack the tags named with a protein.

B1: human IKKε (pcDNA3-huIKKε-flag) (enzyme, UniProt Q14164 1-716)
chain: MQSTANYLWHTDDLLGQGATASVYKARNKKSGELVAVKVFNTTSYLRPREVQVREFEVLRKLNHQNIVKLFAVEETGGSRQKVLVMEYCSSGSLLSVLESPENAFGLPEDEFLVVLRCVVAGMNHLRENGIVHRDIKPGNIMRLVGEEGQSIYKLTDFGAARELDDDEKFVSVYGTEEYLHPDMYERAVLRKPQQKAFGVTVDLWSIGVTLYHAATGSLPFIPFGGPRRNKEIMYRITTEKPAGAIAGAQRRENGPLEWSYTLPITCQLSLGLQSQLVPILANILEVEQAKCWGFDQFFAETSDILQRVVVHVFSLSQAVLHHIYIHAHNTIAIFQEAVHKQTSVAPRHQEYLFEGHLCVLEPSVSAQHIAHTTASSPLTLFSTAIPKGLAFRDPALDVPKFVPKVDLQADYNTAKGVLGAGYQALRLARALLDGQELMFRGLHWVMEVLQATCRRTLEVARTSLLYLSSSLGTERFSSVAGTPEIQELKAAAELRSRLRTLAEVLSRCSQNITETQESLSSLNRELVKSRDQVHEDRSIQQIQCCLDKMNFIYKQFKKSRMRPGLGYNEEQIHKLDKVNFSHLAKRLLQVFQEECVQKYQASLVTHGKRMRVVHETRNHLRLVGCSVAACNTEAQGVQESLSKLLEELSHQLLQDRAKGAQASPPPIAPYPSPTRKDLLLHMQELCEGMKLLASDLLDNNRIIERLNRVPAPPDV
For B1, the binding result in experiment [1] and in experiment [2] was “binds” in each case.

These data come from publication PMC6430831.
